# Source: PMC6925144, “A prospective compound screening contest identified broader inhibitors for Sirtuin 1” (Scientific Reports, 2019)
# Sequences of proteins named here, by UniProt entry; tags and fusion partners are left off. Residues count along the entry.
# UniProt Q96EB6, 2-747 limits assumed: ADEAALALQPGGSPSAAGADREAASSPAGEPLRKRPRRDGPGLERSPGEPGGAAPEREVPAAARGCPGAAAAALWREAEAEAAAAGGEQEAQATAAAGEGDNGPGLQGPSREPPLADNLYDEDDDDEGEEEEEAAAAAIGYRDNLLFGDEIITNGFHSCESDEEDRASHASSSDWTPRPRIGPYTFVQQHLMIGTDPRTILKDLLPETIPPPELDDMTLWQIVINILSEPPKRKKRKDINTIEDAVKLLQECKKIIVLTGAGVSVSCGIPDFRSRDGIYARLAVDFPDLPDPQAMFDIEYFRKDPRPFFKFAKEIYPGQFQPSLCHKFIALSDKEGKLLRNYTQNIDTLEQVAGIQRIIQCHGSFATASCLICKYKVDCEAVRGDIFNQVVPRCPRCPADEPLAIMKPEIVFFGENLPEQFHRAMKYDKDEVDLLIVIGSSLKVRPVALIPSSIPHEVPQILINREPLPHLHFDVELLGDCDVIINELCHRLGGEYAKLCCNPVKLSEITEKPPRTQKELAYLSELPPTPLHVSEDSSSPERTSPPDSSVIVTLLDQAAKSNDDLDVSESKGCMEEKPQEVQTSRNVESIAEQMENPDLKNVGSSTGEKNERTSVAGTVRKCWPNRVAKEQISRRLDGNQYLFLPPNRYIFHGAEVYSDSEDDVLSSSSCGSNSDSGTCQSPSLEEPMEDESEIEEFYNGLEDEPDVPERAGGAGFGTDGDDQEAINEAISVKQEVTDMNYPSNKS
# In all, about 3,200 compounds were measured (“TSA(without NAD+) / Primary screening (TSA) / delta Tm (K)”: median about -0.07, highest 2% from about 0.37 on). Some of the results follow.
# Target: NAD-dependent deacetylase Sirtuin 1 (human, UniProt Q96EB6)
# Assay: primary screen, delta tm
# Set-up: single well (n = 1)
# Conditions: 10 µM
# How it was run: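 Thermal shift of Sirtuin 1 measured without NAD+, compound at 10 µM (n = 1); value is ΔTm, with hits defined as ΔTm > 0.45 K or < −1.5 K. Hits retested at 5, 10, 20 µM (n = 4) and counterscreened on bovine carbonic anhydrase and ABL1 SH2 domain.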
row,SMILES,TSA(without NAD+) / Primary screening (TSA) / delta Tm (K)
1,CC(N)CCc1ccc(O)cc1 (centres unmarked),-0.03 K
2,CN(C)C(=O)c1ccc2[nH]c3c(c2c1)CCCC3,-0.18 K
3,COCC(C)(N)CN (centres unmarked),-0.07 K
4,COc1ccc(-n2c(C)c(C)c3c(N)ncnc32)cc1,-0.28 K
5,CCC(NC(=O)c1ccc(C(N)=O)cc1)C(c1ccc(C)cc1)n1cncn1 (centres unmarked),-0.21 K
6,CCc1ccc(C(=O)Nc2ccccc2C(=O)OC)cc1,-0.17 K
7,O=C(CN1CCN(C(=O)c2ccc(-c3ccccc3Cl)o2)CC1)Nc1cccc(F)c1,0.06 K
8,Cc1ccc(-c2nc(CC(=O)Nc3cccc(Cn4[nH]c(=O)ccc4=O)c3)cs2)o1,-0.03 K
9,CCn1c(C)cc(C(=O)OC(C)C(=O)Nc2ccc(C(N)=O)cc2)c1C (centres unmarked),-0.07 K
10,Cc1ccc(C(C)C)c(OCC(=O)Nc2cc(C(N)=O)ccc2N2CCCC2)c1,-0.03 K
11,CCc1ccc(CNC(=O)CCCc2nc(-c3ccc(F)cc3)no2)cc1,-0.15 K
12,COc1cc(CN(C)C(=O)c2ccc(C)c(NC(=O)c3ccco3)c2)ccc1OCc1ccccc1,0.18 K
13,CN(c1ccc(F)c(F)c1)S(=O)(=O)c1ccc2nc[nH]c(=O)c2c1,0.19 K
14,c1ccc(-c2noc(CN3CCN(c4nc(-c5ccsc5)nc5ccccc45)CC3)n2)cc1,0.18 K
15,COC(=O)c1c(C)[nH]c(C(=O)NCCc2ccc(-n3cccn3)cc2)c1C,0.17 K
16,CCn1nc(C(=O)N(C)Cc2ccc(OCc3ccccc3)c(OC)c2)c2ccccc2c1=O,-0.05 K
17,COC(=O)c1ccccc1NC(=O)Cc1c[nH]c2ccccc12,-0.22 K
18,Cn1ccnc1-c1sc(NC(=O)c2ccccc2Br)nc1-c1ccccc1,0.02 K
19,COc1ccc(OC)c(C2CCCN2C(=O)c2ccc(NC(=O)c3ccco3)s2)c1 (centres unmarked),-0.02 K
20,NC(=S)c1cccc(NC(=O)CN2CCOCC2)c1,-0.31 K
21,NC(=O)c1ccc(COC(=O)c2ccc(S(=O)(=O)NC3CC3)cc2)cc1,-0.08 K
22,COc1ccc(NC(=O)CC23CC4CC(C2)CC(CC(=O)Nc2ccc(OC)cc2)(C4)C3)cc1,0.15 K
23,CC(C)CC(=O)Nc1ccc(C(=O)COC(=O)CNC(=O)CC23CC4CC(CC(C4)C2)C3)cc1,-0.04 K
24,C=CCOc1ccc(C2C(C(=O)c3ccco3)=C(O)C(=O)N2CCCN2CCOCC2)cc1 (centres unmarked),-0.33 K

row,SMILES,TSA(without NAD+) / Primary screening (TSA) / delta Tm (K)
1,CCNC(=O)NCc1ccc(NC(=O)c2ccc([N+](=O)[O-])cc2)cc1,-0.27 K
2,CC(OC(=O)c1ccc(CS(C)(=O)=O)cc1)C(=O)NCc1ccco1 (centres unmarked),0.22 K
3,O=C(Nc1nnc[nH]1)C1CC(=O)N(c2ccc3c(c2)CCC3)C1 (centres unmarked),-0.01 K
4,CN(CCC#N)C(=O)C(C)(C)c1ccccc1,-0.12 K
5,Cc1ccc(OCCCCn2cncn2)c(C)c1,0.08 K
6,NCCC1(O)CNC1,-0.33 K
7,Cc1cc(C2=NN=C(NCc3ccco3)SC2)c(C)n1Cc1ccc2c(c1)OCO2,-0.14 K
8,O=c1cc(NCCCc2ccccc2)nc2ccccn12,0.02 K
9,CCOC(=O)c1c(NC(=O)COC(=O)c2ccc(C)c(O)c2)sc(C(=O)N(CC)CC)c1C,-0.23 K
10,C[C@@H](N)C(N)=O,-0.07 K
11,Cc1nn(-c2ccccc2)cc1C=C1C(=O)NC(=S)NC1=O,0.05 K
12,NC(=O)c1ccccc1NC(=O)CCN1CCN(c2ncccn2)CC1,-0.02 K
13,CN(CCCc1cc(-c2ccccc2)n(C)n1)C(=O)CCc1c[nH]c2ccccc12,-0.24 K
14,O=C(O)c1cccc2ccccc12,-0.12 K
15,O=C(Nc1cccc(Cn2[nH]c(=O)ccc2=O)c1)c1cccc(Oc2ccccc2)c1,-0.13 K
16,Cc1cc(C)cc(N(Cc2ccc(C(N)=O)cc2)Cc2ccc(C(N)=O)cc2)c1,-0.04 K
17,O=C(Cn1[nH]c(=O)c2ccccc2c1=O)Nc1cccc(S(=O)(=O)NCc2ccco2)c1,0.12 K
18,CN1CCC(Sc2ccc3ccccc3c2)C1=O (centres unmarked),-0.03 K
19,CN(c1ccc(C(N)=O)cc1)S(=O)(=O)c1ccc2c(c1)CCC2,-0.24 K
20,Cc1ccc(C(=O)OCc2ccc(C(=O)Nc3ccccc3)cc2)cc1,0.08 K
21,CCS(=O)(=O)NCC(=O)O,-0.07 K
22,CC(C)C(=O)NCCc1ccc(Cl)s1,-0.05 K
23,O=C(NC1CC1)c1ccc2[nH]c3c(c2c1)CCCC3,-0.12 K
24,Cc1cc(S(=O)(=O)Nc2ccc(C(=O)NCc3ccccc3-n3cccn3)cc2)ccc1F,-0.02 K

row,SMILES,TSA(without NAD+) / Primary screening (TSA) / delta Tm (K)
1,Cc1nnc(C(C)Oc2ccc3c(c2)CCCNC3=O)o1 (centres unmarked),-0.15 K
2,NC(=O)C1CCN(c2ncnc3sc4c(c23)CCCC4)CC1,0.28 K
3,COc1ccccc1N1CCN(C(=O)c2ccccc2SCC(=O)NC23CC4CC(CC(C4)C2)C3)CC1,-0.14 K
4,CC(=O)NS(=O)(=O)c1ccc(NS(=O)(=O)c2cccs2)cc1,-0.13 K
5,CCn1nccc1CNc1cnc2c(c1)c(C)nn2C,-0.23 K
6,CNc1ncnc2c1cnn2-c1ccccc1,-0.12 K
7,Cc1ccc(OC2CCN(Cc3cc(=O)n4c(-c5ccccc5)csc4n3)CC2)cc1C,-0.18 K
8,Cc1ccc(C(=O)C2=C(O)C(=O)N(CCCN3CCOCC3)C2c2ccc(OC(C)C)cc2)o1 (centres unmarked),-0.02 K
9,Cc1ccc(C(=O)Nc2ccc(N3CCN(Cc4ccccc4)CC3)cc2)cc1NC(=O)c1ccco1,0.28 K
10,NC(=O)c1nn(CC(=O)Nc2ccc(N3CCN(Cc4ccccc4)CC3)cc2)c(=O)c2ccccc12,0.13 K
11,C/C=C/c1ccc(OCC(=O)Nc2cccc(S(=O)(=O)NCc3ccco3)c2)c(OC)c1,-0.15 K
12,O=C(COc1ccccc1Cc1ccccc1)NNC(=O)C1=COCCO1,-0.15 K
13,O=C(C1=C(O)C(=O)N(CCCN2CCOCC2)C1c1ccc(F)cc1)c1cc2ccccc2o1 (centres unmarked),0.09 K
14,CCn1cnnc1C1CCN(c2ncc([N+](=O)[O-])cc2C(N)=O)CC1,-0.02 K
15,COc1ccc(C(=O)C2=C(O)C(=O)N(CCCN3CCOCC3)C2c2ccc(OC)cc2)cc1 (centres unmarked),-0.13 K
16,O=C(NC1CCN(Cc2ccccc2)C1=O)c1cccnc1S (centres unmarked),-0.05 K
17,CCc1ccc(CNC(C)c2c(C)nn(C)c2C)cc1 (centres unmarked),-0.15 K
18,O=C(Nc1cccc(S(=O)(=O)N2CCOCC2)c1)c1nn(Cc2ccccc2)c(=O)c2ccccc12,-0.08 K
19,CC1Cc2ccccc2N1C(=O)COC(=O)/C=C/c1cccc(F)c1 (centres unmarked),-0.15 K
20,Clc1ccc(-c2nc(CSc3nnc(NCc4ccco4)s3)cs2)cc1,0.17 K
21,CC(N)CCO (centres unmarked),-0.23 K
22,CCNCc1ccc2c(c1)OCO2,0.08 K
23,Cn1c(-c2ccccc2)c(C=O)c2ccccc21,-0.07 K
24,O=C1/C(=C\c2ccc(Br)cc2)COc2ccccc21,0.12 K

row,SMILES,TSA(without NAD+) / Primary screening (TSA) / delta Tm (K)
1,NC(=O)C1CCN(c2nc(CSc3ccccc3)nc3sc4c(c23)CCCC4)CC1,1.78 K
2,NC(=O)C1CCN(Cc2nc3ccc(Cl)cc3c(=O)[nH]2)CC1,-0.33 K
3,CCCOc1cccc(C2C(C(=O)c3ccco3)=C(O)C(=O)N2CCCN2CCOCC2)c1 (centres unmarked),0.06 K
4,Cc1cc(CNc2ccccc2C(N)=O)no1,0.06 K
5,COc1ccc(C2C(C(=O)c3cc4ccccc4o3)=C(O)C(=O)N2CCCN2CCOCC2)cc1 (centres unmarked),-0.13 K
6,Cc1ccc(NC(=O)CN2CCN(C(=O)c3ccccc3NC(=O)c3ccco3)CC2)cc1,-0.04 K
7,O=C(CN1CCCCCCC1=O)NCCc1nc2ccccc2[nH]1,-0.17 K
8,Cc1cccc(NC(=O)CN2CCN(c3ccccc3F)CC2)c1C,0.12 K
9,CCCC(N)CN (centres unmarked),-0.23 K
10,NS(=O)(=O)c1ccc2c(c1)CCN2C(=O)Nc1cccc2ccccc12,-0.07 K
11,O=c1oc2ccc3ccccc3c2cc1-c1cnc(N/N=C/c2ccc(Br)cc2)s1,0.03 K
12,Cc1ccc(C(=O)OCC(=O)NC(C)C23CC4CC(CC(C4)C2)C3)cc1NC(=O)c1ccco1 (centres unmarked),-0.07 K
13,Cc1cc(C(=O)OCc2cc3ccccc3[nH]c2=O)on1,-0.21 K
14,CCn1c(S)nnc1C1CC1,-0.13 K
15,NC(=O)c1ccc(NC(=O)c2cc(-c3cccnc3)nc3ccccc23)cc1,-0.13 K
16,NC(=O)c1ccc(NC(=O)COC(=O)CNC(=O)C2CCCCC2)cc1,0.07 K
17,CN1CCN(C(=O)/C=C/c2cn(CCC#N)c3ccccc23)C(c2ccccc2)C1 (centres unmarked),-0.11 K
18,Cc1cccc(Nc2nnc(SCC(=O)Nc3ccc(C(N)=O)cc3)s2)c1,-0.04 K
19,Cc1ccc(C(=O)OCC(=O)NC(C)c2ccc3c(c2)CCCC3)cc1O (centres unmarked),-0.05 K
20,Cc1[nH]c2ccc(CNC(=O)N3CCC(C(N)=O)CC3)cc2c1C,0.02 K
21,O=C(/C=C/c1ccc(N2CCCC2=O)cc1)NCCN1CCOCC1,-0.11 K
22,CC(=O)Nc1ccc(NC(=O)c2cn(Cc3ccccc3)nc2-c2ccc(Cl)cc2)cc1,0.22 K
23,Oc1ccc(/C=N/c2ccccc2Cc2ccccc2)c(O)c1O,-0.52 K

# Six records drawn at random from those above:
row,SMILES,TSA(without NAD+) / Primary screening (TSA) / delta Tm (K)
4,CC(=O)NS(=O)(=O)c1ccc(NS(=O)(=O)c2cccs2)cc1,-0.13 K
8,Cc1ccc(C(=O)C2=C(O)C(=O)N(CCCN3CCOCC3)C2c2ccc(OC(C)C)cc2)o1 (centres unmarked),-0.02 K
9,CCOC(=O)c1c(NC(=O)COC(=O)c2ccc(C)c(O)c2)sc(C(=O)N(CC)CC)c1C,-0.23 K
10,NC(=O)c1nn(CC(=O)Nc2ccc(N3CCN(Cc4ccccc4)CC3)cc2)c(=O)c2ccccc12,0.13 K
15,O=C(Nc1cccc(Cn2[nH]c(=O)ccc2=O)c1)c1cccc(Oc2ccccc2)c1,-0.13 K
22,CC(=O)Nc1ccc(NC(=O)c2cn(Cc3ccccc3)nc2-c2ccc(Cl)cc2)cc1,0.22 K
